“And” between values parts separate entries of the source, which are not always exact repeats. Equal entries are not always repeated. Out of some 400,000 compounds screened, about 5,500 (1.4%) were called active. The shares of active, inactive and inconclusive entries below differ from those in the screen. Calls come from the whole dose curve; as a rule, active = well fitted cell-killing curve with a large enough effect; inconclusive = small, poorly fitted or top-dose-only effect, or effect the other way; inactive = flat fitted curve, though single readings scatter. A potency beside an inconclusive call is a rough fit, not a confirmed value.
Assay: qHTS assay for MDR1-selective chemotherapeutics: Primary screen using the parental adenocarcinoma cell KB-3-1; note: nearly all actives have a fitted effect of over 60% in size
Details: KB-3-1 viability, CellTiter-Glo ATP luminescence, 72 h; series mostly up to 46.1 µM
Outline: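 Parental KB-3-1 viability, qHTS format: 72 h compound exposure, 37 °C; CellTiter-Glo; media-only wells and DMSO plates as controls; concentration-effect fits on corrected data.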
Potency is the fitted concentration of half-maximal effect.

Structure (SMILES) | Potency
Cc1cc(S(=O)(=O)N2CCCOC2CNC(=O)C(=O)NCCCN2CCOCC2)ccc1F (stereo unspecified) | inactive
COC(=O)[C@H](CC(C)C)NS(=O)(=O)N(Cc1ccccc1)[C@@H](CC(C)C)C(=O)OC | inconclusive: 32.6 µM [cytotoxic, single point]
O=S(=O)(Nc1ccc2c(c1)nc1n2CCN(Cc2ccccc2)C1)c1ccccc1 | inconclusive: 7.31 µM [cytotoxic, partial curve]
CCN1C(=O)[C@H]2[C@H]3CN=C(SCc4ccc(C(=O)OC)cc4)N3[C@@](CC)(C(=O)OC)[C@H]2C1=O | inconclusive: 0.259 µM [rising, full curve]
Cn1c(-c2ccc(Cl)cc2)ccc(C#N)c1=O | inconclusive: 13 µM [cytotoxic, partial curve, poor fit]
COc1ccccc1-c1ccc2c(c1)C(C)(Cc1ccc(F)c(Cl)c1)C(=O)N2 (stereo unspecified) | inconclusive: 25.9 µM [cytotoxic, single point]
c1cc2c(cc1C1=Nn3c(nnc3C3CCCCC3)SC1)OCO2 | inconclusive: 28.2 µM [cytotoxic, single point]
Cc1ccccc1OCC(=O)NCC(=O)OCc1cccc2ccccc12 | inconclusive: 29.1 µM [rising, single point]
Nc1cccnc1Oc1ccc(F)cc1 | inconclusive: 0.0082 µM [cytotoxic, full curve]
O=C(NCCC1=CCCCC1)C1CCCN(S(=O)(=O)c2cccc3cccnc23)C1 (stereo unspecified) | inconclusive: 0.0052 µM [cytotoxic, full curve, poor fit]
CC1(C)CC(=O)C2=C(C1)N1C(=C(C#N)C2c2ccc(Cl)cc2)N=C(N)c2ccccc21 (stereo unspecified) | inconclusive: 18.4 µM [cytotoxic, single point]
Cc1cc(-c2csc(N)n2)c(C)n1CCC(C)C | inconclusive: 29.1 µM [cytotoxic, single point]
Cc1nc2c(-c3ccccc3)c(C)nn2c(SCC(N)=O)c1Cc1ccccc1 | inconclusive: 0.0461 µM [rising, full curve]
COc1ccc(C)cc1Nc1nc(-c2ccccc2O)nc2ccccc12 | inactive
CC(=O)Nc1ccc(Nc2nc(-c3c(C)nc4ccccn34)cs2)cc1 | inconclusive: 0.651 µM [cytotoxic, full curve, poor fit]
CC(C)CCn1c(=O)c2ccccc2n2c(CCl)nnc12 | inconclusive: 29.1 µM [cytotoxic, single point]
COc1ccccc1Nc1nnc(SCC(=O)Nc2nc(-c3ccc(F)cc3)cs2)s1 | inactive
CCOCCCn1c(=N)c(C(=O)NCc2ccc3c(c2)OCO3)cc2c(=O)n3cccc(C)c3nc21 | active: 6.51 µM
COc1ccc(S(=O)(=O)N(CC(=O)Nc2ccc(S(=O)(=O)N3CCOCC3)cc2)c2ccccc2)cc1 | inconclusive: 18.4 µM [cytotoxic, single point]
Cc1ccc(-c2nnc(CCC(=O)N(C)Cc3nccs3)o2)s1 | inconclusive: 10.3 µM [rising, single point]
CCCC(=O)Nc1ccc(C(=O)NCCc2ccc(F)cc2)cc1 | inactive
C=Nc1ccc(/C=C/c2ccnc3ccccc23)cc1 | inconclusive: 16.4 µM [cytotoxic, single point]

Structure (SMILES) | Potency
CCOc1ccc(CNC(=O)c2ccc(CSc3nc4ccncc4n3Cc3ccc(F)cc3)cc2)cc1 | inactive
COc1ccccc1/C=N/NC(=O)c1ccc(CN2C(=O)c3cccc4cccc2c34)cc1 | inconclusive: 14.6 µM [cytotoxic, partial curve, poor fit]
Cc1nn(-c2ccccc2)c2nc(C3CC3)cc(C(=O)Nc3cccc(F)c3)c12 | inconclusive: 14.6 µM [cytotoxic, partial curve]
COc1cc2c(c(OC)c1OC)-c1ccc(NCc3ccccc3)c(=O)cc1C(NC(C)=O)CC2 (stereo unspecified) | active: 1.16 µM
CC(C)(C)c1ccc(-c2nc3c(C#N)c(-c4ccc5c(c4)OCO5)ccn3n2)cc1 | inconclusive: 16.4 µM [cytotoxic, single point]
CCOc1cc(/C=N\NC(=O)c2c(C)nc3ccccn23)ccc1O | inactive
OC(COc1ccc(OCC(O)CN2CCN(Cc3ccccc3)CC2)cc1)CN1CCN(Cc2ccccc2)CC1 (stereo unspecified) | inconclusive: 29.1 µM [cytotoxic, single point]
O=C(CCCC(=O)OCC(=O)c1cccs1)Nc1ccc(F)cc1 | inconclusive: 16.4 µM [rising, single point]
O=C(CCl)NN=C(c1ccccc1)c1ccccc1 | inconclusive: 29.1 µM [cytotoxic, single point]
O=C(NC12CC3CC(CC(C3)C1)C2)c1cccnc1 | inactive
O=C(Nc1ccc(Cl)c(Cl)c1)Nc1nnc(CC2=CCCCC2)s1 | inconclusive: 18.4 µM [cytotoxic, single point]
COc1ccc(OC)c(Nc2nc3ccccc3nc2-n2nc(C)cc2C)c1 | inactive
COC(=O)c1ccc(CSc2ccc3nnc(-c4ccc(F)cc4)n3n2)o1 | inactive
COc1ccc(-c2nnn3c2nc(NCCc2ccc(OC)c(OC)c2)c2ccccc23)cc1 | inactive
Cc1ccc(Sc2c(C)nn(C(C)(C)C)c2OC(=O)CC(C)C)cc1 | inactive
Cc1ccc(S(=O)(=O)Nc2cccc(C(=O)NCC3(N4CCCCC4)CCCCC3)c2)cc1F | inconclusive: 13 µM [cytotoxic, partial curve, poor fit]
CCCCN1C(=O)c2[nH]nc(-c3ccccc3O)c2C1c1ccc(OCc2ccccc2)c(OC)c1 (stereo unspecified) | inconclusive: 29.1 µM [cytotoxic, single point]
CNc1ccc(Cl)cc1C(N)=O | inconclusive: 32.6 µM [rising, single point]
COc1ccc(NC(=S)N2CCC(NC(=O)c3ccccc3C)CC2)cc1 | inconclusive: 2.06 µM [rising, partial curve, poor fit]
Cn1cc(S(=O)(=O)N2CCOCC2)cc1C(=O)Nc1ccc(Cl)cc1 | inactive
O=C(CNCc1ccco1)Nc1cc(S(=O)(=O)N2CCOCC2)ccc1N1CCOCC1 | inconclusive: 29.1 µM [rising, single point]
COc1ccc(CCNCC(=O)Nc2ccc(C)c(Br)c2)cc1OC | inconclusive: 32.6 µM [cytotoxic, single point]

Structure (SMILES) | Potency
Cc1c(Cc2ccccc2)sc(/N=C/c2ccc3ccccc3c2)c1C(N)=O | inconclusive: 0.92 µM [cytotoxic, full curve, poor fit]
Cc1ccccc1OCC(=O)NCC(c1cccs1)N1CCOCC1 (stereo unspecified) | inconclusive: 29.1 µM [cytotoxic, single point]
COc1ccc2oc(=Nc3cc(F)ccc3F)c(C(N)=O)cc2c1 | active: 7.31 µM
O=C(NCC1CC1)c1ccc2sc([C@@H]3O[C@H](CO)[C@H](O)[C@H](O)[C@H]3O)nc2c1 | inactive
COc1cc(/C=C/c2ccc3cccc(OC)c3n2)c(OC(C)=O)c([N+](=O)[O-])c1 | inconclusive: 10.3 µM [cytotoxic, partial curve]
CCN(CC)S(=O)(=O)c1cccc(-c2nnc(SCC(=O)NC3CCCCCCC3)n2N)c1 | inconclusive: 29.1 µM [cytotoxic, single point]
COc1ccccc1Cc1c(-c2ccc(F)cc2)nc2ccc(Br)cn12 | inconclusive: 29.1 µM [cytotoxic, single point]
O=C(CN1C(=O)S/C(=C\c2ccc(F)cc2)C1=O)Nc1cccc(S(=O)(=O)NCc2ccco2)c1 | inconclusive: 18.4 µM [cytotoxic, single point]
C=CCn1c(SCc2csc(C)n2)nc2sc3c(c2c1=O)CCCC3 | inconclusive: 9.2 µM [cytotoxic, partial curve, poor fit]
CCN(CC)c1ccc(/C=N/N2C(=O)c3ccccc3C2=O)c(O)c1 | inactive
O=C(NC1CCCC1)C(c1ccccc1)N(C(=O)c1csnn1)c1ccccc1F (stereo unspecified) | inconclusive: 29.1 µM [rising, single point]
COc1ccc(C(=O)Nc2nc3c(s2)Cc2c(Br)ccc(OC)c2-3)cc1OC | inconclusive: 16.4 µM [rising, partial curve]
COc1ccccc1CNC(=O)COc1ccc([N+](=O)[O-])cc1 | inactive
COc1ccc(C(C)(O)c2nc(-c3ccccc3OC)cs2)cc1 (stereo unspecified) | inconclusive: 29.1 µM [cytotoxic, single point]
Cc1ccc(-c2noc(C3CCCN(C(=O)c4ccc(Cl)cc4)C3)n2)o1 (stereo unspecified) | inconclusive: 20.6 µM [cytotoxic, single point]
COc1ccc(CNC(=O)CCCn2ccc3cc(S(=O)(=O)N4CCCC4)ccc32)cc1 | inconclusive: 20.6 µM [cytotoxic, single point] and inconclusive: 25.9 µM [cytotoxic, partial curve, poor fit]
CCN(CC)S(=O)(=O)c1cc(NC(=O)c2ccc(Br)s2)ccc1C | inconclusive: 23.1 µM [cytotoxic, single point]
CCc1nc2c(c(=O)c3ccccc3n2C)c(=O)n1C1CCCCCC1 | inactive
CC1(C)Cc2ccccc2C2=NNC(=O)C2=N1 | inconclusive: 18.4 µM [cytotoxic, single point]
CC1=C(C(=O)N(C)C)CC(CC(=O)NCCCCc2ccccc2)C(=O)N1Cc1ccccc1 (stereo unspecified) | inactive
CCCCn1c(SCc2nc3ccccc3s2)nc2ccccc2c1=O | active: 23.1 µM
COc1cccc(NC(=O)CN2C(=O)CSc3ccc(S(=O)(=O)N4CCCCC4)cc32)c1 | inconclusive: 20.6 µM [cytotoxic, single point]

Looked up above:
Under Potency, O=C(NCCC1=CCCCC1)C1CCCN(S(=O)(=O)c2cccc3cccnc23)C1 (stereo unspecified) has the entry inconclusive: 0.0052 µM [cytotoxic, full curve, poor fit]
Under Potency, COc1ccccc1Nc1nnc(SCC(=O)Nc2nc(-c3ccc(F)cc3)cs2)s1 has the entry inactive
Under Potency, COc1ccc(NC(=S)N2CCC(NC(=O)c3ccccc3C)CC2)cc1 has the entry inconclusive: 2.06 µM [rising, partial curve, poor fit]
Under Potency, CCCCn1c(SCc2nc3ccccc3s2)nc2ccccc2c1=O has the entry active: 23.1 µM

— PubChem BioAssay AID1347075 (National Center for Advancing Translational Sciences (NCATS), 2019)
